Data as given in the supplement of paper PMC3334620.
Whole data set: some 33,000 sequences, median “E-score (-0.5 to 0.5)” near -8e-05, cut for the highest 2% near 0.23. Some of the results follow.

What follows are sequences tested against T1, Nrg2 (UniProt P38082) (assay: PBM E-score (8-mer binding enrichment) (E-score (-0.5 to 0.5)); higher = stronger / more preferred TF binding). Conditions: protein concentration: 100 nM; construct: GST-full length.
T1 sequence: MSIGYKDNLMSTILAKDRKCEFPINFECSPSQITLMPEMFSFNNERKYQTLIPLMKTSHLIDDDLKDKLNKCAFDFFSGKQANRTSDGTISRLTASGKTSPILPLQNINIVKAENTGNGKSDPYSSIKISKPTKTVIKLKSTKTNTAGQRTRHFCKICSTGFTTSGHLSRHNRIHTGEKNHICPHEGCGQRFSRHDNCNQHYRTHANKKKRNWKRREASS
Summary of the method: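 For each ungapped eight-base word taken together with its reverse complement, the Universal PBM Analysis Suite assigned an E-score. Binding data came from GST-tagged yeast transcription factors, applied at about 100-200 nM, on universal all-10-mer Agilent arrays made double-stranded by primer extension. Fluorescent anti-GST marked bound protein, and scans were normalised with masliner.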

Row | Sequence | PBM E-score
1 | CGACGCTC | -0.0302
2 | AGGTTGTC | -0.197
3 | GTTTGCAA | 0.134
4 | CCTAGTCG | -0.119
5 | CTACGAGC | -0.152
6 | CTGGGCCC | 0.0434
7 | CTGCACAC | -0.155
8 | ACTCAAGA | 0.00721
9 | AAGGCCTC | -0.0691
10 | ACGCTGTC | -0.0824
11 | ATATTTTC | 0.215
12 | CCGCGCAA | 0.0313
13 | CGATTCGA | 0.27
14 | ACACTAGT | -0.0556
15 | AATGCCCC | -0.0413
16 | TAACGCTA | -0.135
17 | AATTGGGA | 0.0665
18 | AACCTGTG | 0.0227
19 | ATGGCTTG | -0.0427
20 | ATTTACTG | 0.107
21 | AACAATGT | 0.0569
22 | CACTCTGG | -0.0491
23 | AGCCAATA | -0.169
24 | GAGAAGGC | -0.117
25 | AAATAGTC | 0.0979

Row | Sequence | PBM E-score
26 | GGAATCTA | 0.0415
27 | CCATGGGG | 0.0538
28 | CACTCCCC | -0.00765
29 | CGAGGTGA | 0.198
30 | GACCGCCA | -0.0413
31 | AACTTGGG | -0.00875
32 | AAGCTCGC | 0.0882
33 | CGTGAGTA | 0.0428
34 | ATGATCTC | 0.087
35 | CAACCGCA | 0.0352
36 | CACCACCC | -0.111
37 | CGTACTTA | 0.115
38 | AGCGCTGG | -0.00329
39 | AATCCATT | 0.198
40 | AACTTCCA | -0.0462
41 | AGGCCGAT | 0.0473
42 | GATGCAGC | 0.0624
43 | CAATTTCC | 0.108
44 | ATACATCC | 0.0716
45 | CAACTAGG | -0.0389
46 | CTCCCTGA | 0.0641
47 | ATATTGAG | 0.11
48 | AAGCTAAC | 0.0145
49 | AGACCCAT | -0.0557
50 | ACGGAGAA | -0.0632

Row | Sequence | PBM E-score
51 | AATTGCCT | 0.0385
52 | CCGTCTTC | -0.0617
53 | CACCAAAG | 0.142
54 | CTACCTGA | -0.184
55 | ATGAACCC | 0.217
56 | GGTGCAGA | -0.0954
57 | CGGGAGCA | -0.132
58 | CACTTTGC | 0.00398
59 | GCAGCAAC | 0.165
60 | TATGTCCA | -0.0135
61 | AATGCGCA | 0.296
62 | AGTTACGG | -0.132
63 | CTTCGCAC | -0.0537
64 | TGGAACAA | 0.155
65 | GTCTCATA | -0.00328
66 | CAGACAGC | -0.0799
67 | ACAAGAGC | 0.0831
68 | GTGCGTAA | -0.0379
69 | AATTCCTG | -0.173
70 | ATGTATTG | 0.131
71 | AACAATAC | 0.202
72 | CAGGTATC | 0.0306
73 | ATTACAAA | 0.0937
74 | TCACCACA | 0.0975
75 | CATTTTTC | -0.00355

Row | Sequence | PBM E-score
76 | CAAGCCAC | -0.154
77 | AGACCCTA | 0.148
78 | ATTCAGCG | 0.0761
79 | AAATACGC | 0.125
80 | AAGTCTTC | -0.177
81 | GACCCACA | 0.154
82 | AGATGTTC | -0.105
83 | ACAATTCG | 0.111
84 | CGGCACAA | 0.0208
85 | AAATCCGC | -0.103
86 | CCGCCCGA | 0.148
87 | ATACGAAA | 0.13
88 | ACCAGGGG | -0.0407
89 | AAATCGAG | 0.0129
90 | GGTTTGTA | 0.014
91 | CCATGTAC | -0.192
92 | CGGCCTTC | 0.0996
93 | ACTAATAC | 0.131
94 | CGCTGCAC | 0.0587
95 | CTGTTAAA | -0.0898
96 | GCCGTAAC | -0.134
97 | CAGCCGGA | 0.0548
98 | AATACTGC | 0.068
99 | CATTCCTA | -0.0667
100 | ACTCCTTA | 0.061

Row | Sequence | PBM E-score
101 | GCCCACAA | 0.00478
102 | ACGGCACC | -0.343
103 | TCGAATCA | 0.138
104 | AAGTATAA | 0.156
105 | TCATTCCA | 0.0235
106 | GTGCCGCA | 0.014
107 | CAATGGCG | 0.0508
108 | TCGAGGCA | 0.0832
109 | AGCTCGAA | 0.228
110 | AAAAGCGC | 0.0157
111 | GAAATGGC | 0.0113
112 | CGAGAGCC | -0.167
113 | AACTAACC | 0.226
114 | ATTGTCAA | 0.0134
115 | ACCTAAGT | 0.126
116 | ACGGGACT | -0.0768
117 | GATAAATC | 0.023
118 | CAGTTACC | -0.0336
119 | ACGCCGCA | 0.0786
120 | TCCCTCCA | -0.19
121 | CATAGAAG | -0.0461
122 | CAGCGGTA | 0.0158
123 | AGCCTAGA | -0.252
124 | CGTAGGGC | -0.238
125 | AATTGACA | 0.0536

Reprinted at random: seven records from the list
Row | Sequence | PBM E-score
124 | CGTAGGGC | -0.238
104 | AAGTATAA | 0.156
121 | CATAGAAG | -0.0461
115 | ACCTAAGT | 0.126
106 | GTGCCGCA | 0.014
114 | ATTGTCAA | 0.0134
119 | ACGCCGCA | 0.0786

Continuation:

Row | Sequence | PBM E-score
126 | AACCTTGT | -0.303
127 | CAGGGGTA | 0.166
128 | CGCTAGCG | -0.202
129 | CCTCGACG | -0.0445
130 | CGGCCCAG | -0.264
131 | ACCGTCAT | -0.00617
132 | ACCACTAG | 0.0148
133 | TCTTCCCA | -0.311
134 | AAGAATGA | 0.00394
135 | GCGACAGC | -0.088
136 | AAGATGCT | -0.0457
137 | ACTCCAGC | -0.0193
138 | CCAATCCA | -0.097
139 | CCCGTCCG | -0.34
140 | GACTCCCC | -0.308
141 | AACCCCAC | 0.0039
142 | GCGGCGTA | 0.0576
143 | AACCCCAT | 0.07
144 | CAAGCACG | -0.0237
145 | ACATGGCA | -0.0242
146 | ACATTGTG | -0.0449
147 | AAACACGG | -0.00565
148 | ACGCGAAG | 0.00927
149 | AGAGGGGG | -0.401
150 | AGGAGTGA | -0.0013

Row | Sequence | PBM E-score
151 | ATTAATTA | 0.117
152 | AAACTACC | -0.00755
153 | CGTTTCGA | -0.0952
154 | ACGTGGCC | -0.227
155 | CAACCCGA | -0.0205
156 | GTAGGAAA | -0.0222
157 | ATATATAC | 0.329
158 | CATTCAAA | 0.149
159 | AGCTCCCG | -0.258
160 | GCTCCGTA | -0.165
161 | CACAGTCG | -0.141
162 | ATGCAACA | 0.149
163 | TATATCCA | 0.113
164 | AACCAGGG | 0.176
165 | AGAATTTG | -0.047
166 | GTGTCAAC | -0.0626
167 | AAAGCTGG | -0.106
168 | GCGGACAC | -0.0599
169 | GCCTATAA | -0.0781
170 | AACCCAGC | -0.18
171 | GCCTCAGA | -0.0665
172 | CGAACTCC | 0.0319

Some values from the results shown.
GCTCCGTA | PBM E-score: -0.165
AACCCAGC | PBM E-score: -0.18
